Test results reported in publication doi:10.1101/2022.02.28.482286 (bioRxiv, 2022).
No constants are given. Whether binding was seen depends on the method and setting. Tags and fused reporters may be left off the sequences shown.

Target: T1, His6-tagged Pol III subunit C128 (strain for Pol III Δ) (S. cerevisiae) (UniProt P22276)
T1 sequence: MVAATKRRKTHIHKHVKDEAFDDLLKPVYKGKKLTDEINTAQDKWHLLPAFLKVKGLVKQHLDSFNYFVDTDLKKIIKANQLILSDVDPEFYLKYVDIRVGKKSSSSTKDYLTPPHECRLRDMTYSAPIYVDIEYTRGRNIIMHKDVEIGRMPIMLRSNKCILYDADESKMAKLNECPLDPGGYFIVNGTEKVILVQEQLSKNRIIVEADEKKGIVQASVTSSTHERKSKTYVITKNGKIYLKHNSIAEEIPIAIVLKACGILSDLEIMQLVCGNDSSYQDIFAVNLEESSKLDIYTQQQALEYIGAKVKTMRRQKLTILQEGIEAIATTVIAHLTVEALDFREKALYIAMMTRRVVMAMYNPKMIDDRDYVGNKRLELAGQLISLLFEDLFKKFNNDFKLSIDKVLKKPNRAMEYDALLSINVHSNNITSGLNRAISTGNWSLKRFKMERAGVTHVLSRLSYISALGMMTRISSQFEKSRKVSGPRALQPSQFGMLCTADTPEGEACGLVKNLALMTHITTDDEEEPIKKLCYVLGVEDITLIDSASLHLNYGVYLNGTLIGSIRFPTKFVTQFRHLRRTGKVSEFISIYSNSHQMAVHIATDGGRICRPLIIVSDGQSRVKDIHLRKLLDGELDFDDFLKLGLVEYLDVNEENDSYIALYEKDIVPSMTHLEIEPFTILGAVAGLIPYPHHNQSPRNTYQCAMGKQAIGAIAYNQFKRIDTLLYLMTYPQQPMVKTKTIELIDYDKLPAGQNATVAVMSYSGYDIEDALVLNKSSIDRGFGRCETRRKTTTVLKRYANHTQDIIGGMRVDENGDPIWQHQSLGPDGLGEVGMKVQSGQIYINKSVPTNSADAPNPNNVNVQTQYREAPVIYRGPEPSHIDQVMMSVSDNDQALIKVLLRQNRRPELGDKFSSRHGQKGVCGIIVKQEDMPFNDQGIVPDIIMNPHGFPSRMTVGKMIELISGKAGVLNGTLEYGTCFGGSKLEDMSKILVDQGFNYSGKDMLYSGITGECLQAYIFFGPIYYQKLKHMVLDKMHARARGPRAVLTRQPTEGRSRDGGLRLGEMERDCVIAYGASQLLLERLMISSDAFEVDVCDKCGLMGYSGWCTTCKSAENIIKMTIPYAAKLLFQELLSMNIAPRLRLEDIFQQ
Test: affinity purification of the endogenous complex

B1: S. pombe C11 (protein, UniProt O13896 1-109)
chain: MQFCPTCGNHLIVAVDEEGRNAFDCRTCPYHFPISTFLYSRHEFAQKEVDDVLGGEEAFESNQQTEVTCENTKCDNNRAYFFQLQIRSADEPMSTFYRCTKCKFQWREN
  binding: no binding
